Here are results for five compounds from PubChem BioAssay AID248 (DTP/NCI, 2004).

The list does not hold the whole screen: it covers a few groups of compounds. Not every dose and run of a compound is shown. T/C gives the treated animals as a percentage of the vehicle group. For survival time, the PubChem record calls one and a half times the control and up active, and a quarter to a half above the control has no call in these data; cut-offs in other NCI protocols can differ. Some T/C values are marked as having no survivor count here; that says nothing about deaths at the dose. Schedules are NCI's codes, taken here to give the interval after Q, in days (D) or hours (H), and the number of doses after X. Some doses were run more than once; the results are listed from low to high.

This test concerns L1210 leukemia ip in BDF1 mice, survival T/C. The test can be described thus: NCI In Vivo Anticancer Drug Screen. Data for tumor model L1210 Leukemia (intraperitoneal) in B6D2F1 (BDF1) mice. The note with it: T/C endpoint: mean survival time, higher T/C = longer survival.

Consider `CN(C)CC1CCC(OC(=O)C(O)(c2ccccc2)C2CCCC2)C(CN(C)C)N1` (centres undefined), for which the T/C is 95 % of control [survivor count not shown] (dose: 100.0 mg/kg/injection, schedule: Q04DX003 (ip), vehicle: saline); 95 % of control [survivor count not shown] (dose: 200.0 mg/kg/injection, schedule: Q04DX003 (ip), vehicle: saline); 101 % of control [survivor count not shown] (dose: 400.0 mg/kg/injection, schedule: Q04DX003 (ip), vehicle: saline).
Regarding `ClCCCN(CCCl)CCCl`, the T/C (dose: 3.1 mg/kg/injection, schedule: Q01DX001 (ip), vehicle: saline) is 87 % of control [survivor count not shown].
For `ClCCNCCBr`, the T/C (dose: 0.31 mg/kg/injection, schedule: Q01DX009 (ip), vehicle: saline) was 103 % of control [survivor count not shown]; the T/C (dose: 0.31 mg/kg/injection, schedule: Q04DX003 (ip), vehicle: saline) was 91 % of control [survivor count not shown]; the T/C (dose: 0.62 mg/kg/injection, schedule: Q01DX009 (ip), vehicle: saline) is 112 % of control [survivor count not shown]; the T/C (dose: 0.62 mg/kg/injection, schedule: Q04DX003 (ip), vehicle: saline) was 131 % of control [survivor count not shown]; the T/C (dose: 1.25 mg/kg/injection, schedule: Q01DX009 (ip), vehicle: saline) was 120 % of control [survivor count not shown]; the T/C (dose: 1.25 mg/kg/injection, schedule: Q04DX003 (ip), vehicle: saline) was 98 % of control [survivor count not shown]. Further, the T/C (dose: 2.5 mg/kg/injection, schedule: Q01DX009 (ip), vehicle: saline) is 114 [survivor count not shown] and 117 % of control [survivor count not shown]; the T/C (dose: 2.5 mg/kg/injection, schedule: Q04DX003 (ip), vehicle: saline) is 93 [survivor count not shown] and 104 % of control [survivor count not shown]; the T/C (dose: 5.0 mg/kg/injection, schedule: Q01DX009 (ip), vehicle: saline) was 109 [survivor count not shown] and 115 % of control [survivor count not shown]; the T/C (dose: 5.0 mg/kg/injection, schedule: Q04DX003 (ip), vehicle: saline) was 117 [survivor count not shown] and 120 % of control [survivor count not shown]; the T/C (dose: 6.6 mg/kg/injection, schedule: Q04DX003 (ip), vehicle: saline) is 128 % of control [survivor count not shown]; the T/C (dose: 10.0 mg/kg/injection, schedule: Q01DX009 (ip), vehicle: saline) was 103 % of control [survivor count not shown]. The T/C is, setting by setting: (dose: 10.0 mg/kg/injection, schedule: Q04DX003 (ip), vehicle: saline) 108 [survivor count not shown], 130 [survivor count not shown], 131 % of control [survivor count not shown]; (dose: 15.0 mg/kg/injection, schedule: Q04DX003 (ip), vehicle: saline) 103 % of control [survivor count not shown].
Consider `ClCCN(CCCl)C1CCCCC1`, for which the T/C is 128 % of control [survivor count not shown] (dose: 0.29 mg/kg/injection, schedule: Q01DX009 (ip), vehicle: saline); 102 % of control [survivor count not shown] (dose: 0.29 mg/kg/injection, schedule: Q04DX003 (ip), vehicle: saline); 140 % of control [survivor count not shown] (dose: 0.44 mg/kg/injection, schedule: Q01DX009 (ip), vehicle: saline); 113 % of control [survivor count not shown] (dose: 0.44 mg/kg/injection, schedule: Q04DX003 (ip), vehicle: saline); 106 % of control [survivor count not shown] (dose: 0.5 mg/kg/injection, schedule: Q01DX001 (ip), vehicle: saline); 154 % of control [survivor count not shown] (dose: 0.66 mg/kg/injection, schedule: Q01DX009 (ip), vehicle: saline). Further, the T/C (dose: 0.66 mg/kg/injection, schedule: Q04DX003 (ip), vehicle: saline) is 116 % of control [survivor count not shown]; the T/C (dose: 0.7 mg/kg/injection, schedule: Q01DX015 (ip), vehicle: saline) was 121 % of control [survivor count not shown]; the T/C (dose: 1.0 mg/kg/injection, schedule: Q01DX001 (ip), vehicle: saline) is 104 % of control [survivor count not shown]; the T/C (dose: 1.0 mg/kg/injection, schedule: Q01DX009 (ip), vehicle: saline) was 103 [survivor count not shown] and 130 % of control [survivor count not shown]; the T/C (dose: 1.0 mg/kg/injection, schedule: Q04DX003 (ip), vehicle: saline) is 116 % of control [survivor count not shown]; the T/C (dose: 1.3 mg/kg/injection, schedule: Q01DX015 (ip), vehicle: saline) is 134 % of control [survivor count not shown]. In addition, the T/C is, setting by setting: (dose: 1.5 mg/kg/injection, schedule: Q01DX009 (ip), vehicle: saline) 109 % of control [survivor count not shown]; (dose: 1.8 mg/kg/injection, schedule: Q01DX001 (ip), vehicle: saline) 110 % of control [survivor count not shown]; (dose: 2.0 mg/kg/injection, schedule: Q01DX001 (ip), vehicle: saline) 125 % of control [survivor count not shown]; (dose: 2.1 mg/kg/injection, schedule: Q01DX015 (ip), vehicle: saline) 136 % of control [survivor count not shown]; (dose: 3.0 mg/kg/injection, schedule: Q01DX001 (ip), vehicle: saline) 119 % of control [survivor count not shown]; (dose: 3.5 mg/kg/injection, schedule: Q01DX015 (ip), vehicle: saline) 93 % of control [survivor count not shown]. For the same compound, the T/C (dose: 4.0 mg/kg/injection, schedule: Q01DX001 (ip), vehicle: saline) is 128 % of control [survivor count not shown]; the T/C (dose: 5.0 mg/kg/injection, schedule: Q01DX001 (ip), vehicle: saline) was 125 [survivor count not shown] and 141 % of control [survivor count not shown]; the T/C (dose: 7.0 mg/kg/injection, schedule: Q01DX001 (ip), vehicle: saline) is 130 % of control [survivor count not shown]; the T/C (dose: 8.0 mg/kg/injection, schedule: Q01DX001 (ip), vehicle: saline) was 142 % of control [survivor count not shown]; the T/C (dose: 10.0 mg/kg/injection, schedule: Q01DX001 (ip), vehicle: saline) was 148 % of control [survivor count not shown]; the T/C (dose: 85.0 micrograms/kg/injection, schedule: Q01DX009 (ip), vehicle: saline) is 100 % of control [survivor count not shown]. For the same compound, the T/C runs as follows: (dose: 128.0 micrograms/kg/injection, schedule: Q01DX009 (ip), vehicle: saline) 105 % of control [survivor count not shown]; (dose: 193.0 micrograms/kg/injection, schedule: Q01DX009 (ip), vehicle: saline) 103 % of control [survivor count not shown].
Consider `O=C(OC1CCN2CCCC12)C(O)(c1ccccc1)c1ccccc1` (centres undefined), for which the T/C is, setting by setting: (dose: 50.0 mg/kg/injection, schedule: Q01DX009 (ip), vehicle: saline with Tween-80) 101 % of control [survivor count not shown]; (dose: 100.0 mg/kg/injection, schedule: Q01DX009 (ip), vehicle: saline with Tween-80) 101 % of control [survivor count not shown]; (dose: 100.0 mg/kg/injection, schedule: Q04DX003 (ip), vehicle: saline with Tween-80) 105 % of control [survivor count not shown]; (dose: 200.0 mg/kg/injection, schedule: Q01DX009 (ip), vehicle: saline with Tween-80) 97 % of control [survivor count not shown]; (dose: 200.0 mg/kg/injection, schedule: Q04DX003 (ip), vehicle: saline with Tween-80) 96 % of control [survivor count not shown].
